{"source": "patent US20210386709A1", "about": "“COMPOSITIONS AND METHODS FOR SUPPRESSING MSUT2” (United States Government As Represented By The Department …, priority 2020, published 2021)", "molecular_target": "T1, MSUT2 ZF (ZC3H14 C-terminal CCCH zinc finger domain) (UniProt Q6PJT7)", "T1 sequence (looked up)": "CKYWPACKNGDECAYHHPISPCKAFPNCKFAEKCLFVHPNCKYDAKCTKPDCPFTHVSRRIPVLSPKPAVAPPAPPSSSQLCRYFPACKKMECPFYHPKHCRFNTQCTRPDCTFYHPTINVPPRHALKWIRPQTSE", "assay": "binding assay", "settings": "[none]; CITED Wheeler 2019; method not stated; purified recombinant protein; protein details: GST (pGEX-6P1); letters built from the parent sequence and the stated change", "note": "pKd: −log10 of the molar value. For at least one entry, the source does not settle the construct or the ends of the probe. Where a protein sequence is shown, tags need not be part of it.", "data": [{"sequence": "AAAAAAAAAAAAAAA [poly(A) RNA]", "values": [{"measurement": "pKd", "value": 7.22}]}]}
